From the supplement of paper PMC10849652
Some of the results follow.

Amino acid sequences for entries named in this document (tags omitted). A change or cut given only in a name is not applied to a line headed by its entry.
UniProt P42695: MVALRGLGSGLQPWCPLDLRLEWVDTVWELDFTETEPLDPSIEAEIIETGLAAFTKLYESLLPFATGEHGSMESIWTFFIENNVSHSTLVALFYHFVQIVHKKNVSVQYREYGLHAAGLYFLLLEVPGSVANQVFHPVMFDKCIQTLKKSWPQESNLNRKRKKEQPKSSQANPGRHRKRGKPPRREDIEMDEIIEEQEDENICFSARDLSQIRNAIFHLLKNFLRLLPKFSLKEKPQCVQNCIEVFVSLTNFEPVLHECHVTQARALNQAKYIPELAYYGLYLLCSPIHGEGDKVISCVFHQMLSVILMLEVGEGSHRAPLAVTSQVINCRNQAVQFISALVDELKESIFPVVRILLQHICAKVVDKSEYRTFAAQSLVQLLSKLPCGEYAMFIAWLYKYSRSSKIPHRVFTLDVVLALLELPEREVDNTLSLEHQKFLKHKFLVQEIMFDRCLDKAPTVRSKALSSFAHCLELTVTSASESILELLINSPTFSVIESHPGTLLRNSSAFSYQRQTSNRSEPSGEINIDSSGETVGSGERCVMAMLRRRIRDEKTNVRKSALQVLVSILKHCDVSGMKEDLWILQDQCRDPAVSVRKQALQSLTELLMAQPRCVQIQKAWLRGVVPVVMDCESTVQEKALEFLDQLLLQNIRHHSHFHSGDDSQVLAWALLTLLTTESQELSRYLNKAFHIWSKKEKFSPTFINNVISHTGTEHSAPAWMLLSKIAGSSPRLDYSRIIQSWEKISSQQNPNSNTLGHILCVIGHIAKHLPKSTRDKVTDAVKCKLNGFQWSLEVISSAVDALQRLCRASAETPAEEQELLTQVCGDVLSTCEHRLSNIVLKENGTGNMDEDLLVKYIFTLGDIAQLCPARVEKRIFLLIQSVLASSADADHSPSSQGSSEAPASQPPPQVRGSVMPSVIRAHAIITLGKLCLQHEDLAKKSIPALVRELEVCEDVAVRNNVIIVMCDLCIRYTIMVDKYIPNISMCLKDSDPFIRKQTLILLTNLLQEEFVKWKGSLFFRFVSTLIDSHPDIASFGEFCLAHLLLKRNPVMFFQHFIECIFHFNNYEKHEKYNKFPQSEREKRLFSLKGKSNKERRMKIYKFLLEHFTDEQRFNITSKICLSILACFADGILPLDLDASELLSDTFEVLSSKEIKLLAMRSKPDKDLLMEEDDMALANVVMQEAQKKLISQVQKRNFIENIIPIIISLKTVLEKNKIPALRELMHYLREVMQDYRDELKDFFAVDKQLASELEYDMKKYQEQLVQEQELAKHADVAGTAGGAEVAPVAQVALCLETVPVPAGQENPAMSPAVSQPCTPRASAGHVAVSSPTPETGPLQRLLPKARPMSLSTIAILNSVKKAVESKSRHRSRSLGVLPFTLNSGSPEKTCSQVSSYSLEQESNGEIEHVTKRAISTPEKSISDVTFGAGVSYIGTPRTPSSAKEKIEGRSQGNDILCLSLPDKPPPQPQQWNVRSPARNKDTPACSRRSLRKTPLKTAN
UniProt Q9NX14, whole entry, looked up: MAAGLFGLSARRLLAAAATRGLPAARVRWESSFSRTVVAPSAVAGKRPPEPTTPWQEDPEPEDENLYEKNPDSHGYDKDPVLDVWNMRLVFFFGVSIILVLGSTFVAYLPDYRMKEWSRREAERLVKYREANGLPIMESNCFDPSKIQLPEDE
UniProt O43678, whole entry, looked up: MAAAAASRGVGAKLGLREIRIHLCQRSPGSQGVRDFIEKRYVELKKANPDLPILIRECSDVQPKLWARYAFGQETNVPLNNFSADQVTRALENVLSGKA
UniProt Q4G0N4: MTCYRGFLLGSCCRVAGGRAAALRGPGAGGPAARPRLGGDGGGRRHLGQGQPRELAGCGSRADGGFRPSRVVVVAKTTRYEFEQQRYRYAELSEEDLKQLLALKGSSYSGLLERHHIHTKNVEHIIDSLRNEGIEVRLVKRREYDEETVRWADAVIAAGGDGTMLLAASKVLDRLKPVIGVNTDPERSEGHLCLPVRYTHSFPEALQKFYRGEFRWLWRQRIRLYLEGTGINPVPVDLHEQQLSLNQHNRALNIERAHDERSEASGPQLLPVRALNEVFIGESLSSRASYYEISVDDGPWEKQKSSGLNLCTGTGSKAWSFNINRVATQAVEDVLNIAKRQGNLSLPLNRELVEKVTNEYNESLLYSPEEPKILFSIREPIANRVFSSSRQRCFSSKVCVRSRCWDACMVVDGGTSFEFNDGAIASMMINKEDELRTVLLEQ
UniProt Q68D85: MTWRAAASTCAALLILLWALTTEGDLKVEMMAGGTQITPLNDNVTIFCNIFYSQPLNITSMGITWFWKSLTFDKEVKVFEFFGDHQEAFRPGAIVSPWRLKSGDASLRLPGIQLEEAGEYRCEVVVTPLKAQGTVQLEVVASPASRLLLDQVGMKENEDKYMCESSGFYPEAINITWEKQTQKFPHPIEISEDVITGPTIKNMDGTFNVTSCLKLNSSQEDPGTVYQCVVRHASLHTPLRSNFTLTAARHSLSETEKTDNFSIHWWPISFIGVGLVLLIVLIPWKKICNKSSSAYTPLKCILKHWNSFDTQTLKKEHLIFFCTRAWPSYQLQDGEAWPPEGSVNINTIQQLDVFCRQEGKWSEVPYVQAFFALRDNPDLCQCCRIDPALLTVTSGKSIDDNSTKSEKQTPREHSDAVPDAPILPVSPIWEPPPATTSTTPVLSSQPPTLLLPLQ
UniProt Q9P032: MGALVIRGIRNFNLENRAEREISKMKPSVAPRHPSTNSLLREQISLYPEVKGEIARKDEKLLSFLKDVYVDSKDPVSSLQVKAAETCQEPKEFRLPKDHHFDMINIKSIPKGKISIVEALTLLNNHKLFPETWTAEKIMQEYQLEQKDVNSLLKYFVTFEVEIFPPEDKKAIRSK
UniProt Q5VZE5: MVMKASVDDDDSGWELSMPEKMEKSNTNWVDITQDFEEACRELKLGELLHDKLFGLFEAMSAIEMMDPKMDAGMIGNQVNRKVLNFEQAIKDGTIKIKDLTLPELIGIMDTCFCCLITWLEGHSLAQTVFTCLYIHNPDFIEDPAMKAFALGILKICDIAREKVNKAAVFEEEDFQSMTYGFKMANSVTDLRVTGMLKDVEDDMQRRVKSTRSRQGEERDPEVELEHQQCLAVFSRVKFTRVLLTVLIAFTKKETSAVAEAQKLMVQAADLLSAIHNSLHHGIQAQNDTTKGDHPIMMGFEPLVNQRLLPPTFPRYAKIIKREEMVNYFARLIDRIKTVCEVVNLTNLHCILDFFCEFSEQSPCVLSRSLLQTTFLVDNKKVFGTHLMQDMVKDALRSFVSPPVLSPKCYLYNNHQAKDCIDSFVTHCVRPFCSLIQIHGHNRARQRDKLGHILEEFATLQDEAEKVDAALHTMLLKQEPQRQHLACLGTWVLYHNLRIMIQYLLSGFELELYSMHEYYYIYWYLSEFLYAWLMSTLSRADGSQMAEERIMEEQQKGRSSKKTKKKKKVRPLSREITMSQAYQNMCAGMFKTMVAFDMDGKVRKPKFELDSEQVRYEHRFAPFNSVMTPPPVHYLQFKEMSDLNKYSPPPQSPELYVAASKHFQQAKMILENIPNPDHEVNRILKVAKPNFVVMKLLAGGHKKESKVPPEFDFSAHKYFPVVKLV
UniProt Q9Y6M9, whole entry, looked up: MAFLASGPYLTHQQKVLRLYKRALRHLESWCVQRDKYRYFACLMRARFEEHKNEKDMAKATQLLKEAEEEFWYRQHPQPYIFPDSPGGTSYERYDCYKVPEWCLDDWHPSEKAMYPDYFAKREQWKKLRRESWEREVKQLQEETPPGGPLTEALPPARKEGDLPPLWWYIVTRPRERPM
UniProt Q9Y5N5: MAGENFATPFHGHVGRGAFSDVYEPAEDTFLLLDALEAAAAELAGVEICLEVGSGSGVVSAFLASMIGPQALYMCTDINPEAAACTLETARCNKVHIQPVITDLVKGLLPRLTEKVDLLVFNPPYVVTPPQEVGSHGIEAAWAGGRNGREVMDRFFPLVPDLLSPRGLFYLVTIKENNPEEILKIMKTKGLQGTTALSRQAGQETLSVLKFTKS
UniProt P54802: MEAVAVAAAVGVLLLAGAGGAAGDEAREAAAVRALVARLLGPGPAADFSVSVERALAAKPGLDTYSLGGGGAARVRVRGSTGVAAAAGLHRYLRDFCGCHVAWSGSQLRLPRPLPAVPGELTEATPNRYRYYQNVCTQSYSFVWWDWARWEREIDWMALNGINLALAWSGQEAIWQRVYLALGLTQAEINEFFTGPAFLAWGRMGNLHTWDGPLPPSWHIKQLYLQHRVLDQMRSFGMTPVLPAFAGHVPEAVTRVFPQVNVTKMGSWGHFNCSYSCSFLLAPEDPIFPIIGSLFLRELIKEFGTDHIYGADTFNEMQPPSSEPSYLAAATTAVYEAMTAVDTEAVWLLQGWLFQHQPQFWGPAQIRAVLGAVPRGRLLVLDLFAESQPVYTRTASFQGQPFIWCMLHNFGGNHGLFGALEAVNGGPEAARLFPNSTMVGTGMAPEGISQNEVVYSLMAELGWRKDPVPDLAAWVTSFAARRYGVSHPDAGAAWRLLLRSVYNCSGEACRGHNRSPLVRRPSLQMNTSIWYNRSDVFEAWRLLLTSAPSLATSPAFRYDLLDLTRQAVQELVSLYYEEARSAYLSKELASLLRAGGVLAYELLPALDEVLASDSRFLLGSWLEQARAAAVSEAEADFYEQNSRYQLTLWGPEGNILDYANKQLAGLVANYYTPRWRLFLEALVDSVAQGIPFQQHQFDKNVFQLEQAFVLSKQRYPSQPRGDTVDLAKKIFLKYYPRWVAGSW
UniProt O75306, whole entry, looked up: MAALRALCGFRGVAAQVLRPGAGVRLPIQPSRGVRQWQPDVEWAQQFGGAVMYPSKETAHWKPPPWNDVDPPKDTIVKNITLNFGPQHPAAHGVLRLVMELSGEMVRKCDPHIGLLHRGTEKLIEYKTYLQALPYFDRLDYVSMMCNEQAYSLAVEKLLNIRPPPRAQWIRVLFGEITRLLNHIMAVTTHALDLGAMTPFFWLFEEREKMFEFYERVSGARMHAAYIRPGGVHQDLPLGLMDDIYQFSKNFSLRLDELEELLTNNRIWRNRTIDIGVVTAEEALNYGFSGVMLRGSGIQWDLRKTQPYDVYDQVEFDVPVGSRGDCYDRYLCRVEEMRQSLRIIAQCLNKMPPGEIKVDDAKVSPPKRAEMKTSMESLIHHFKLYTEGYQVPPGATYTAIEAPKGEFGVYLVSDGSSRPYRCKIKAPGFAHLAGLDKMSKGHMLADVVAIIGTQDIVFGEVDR
UniProt O43920, whole entry, looked up: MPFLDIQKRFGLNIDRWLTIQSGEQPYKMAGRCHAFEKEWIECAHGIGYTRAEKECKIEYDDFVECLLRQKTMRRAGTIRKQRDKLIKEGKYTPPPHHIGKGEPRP
UniProt O95544: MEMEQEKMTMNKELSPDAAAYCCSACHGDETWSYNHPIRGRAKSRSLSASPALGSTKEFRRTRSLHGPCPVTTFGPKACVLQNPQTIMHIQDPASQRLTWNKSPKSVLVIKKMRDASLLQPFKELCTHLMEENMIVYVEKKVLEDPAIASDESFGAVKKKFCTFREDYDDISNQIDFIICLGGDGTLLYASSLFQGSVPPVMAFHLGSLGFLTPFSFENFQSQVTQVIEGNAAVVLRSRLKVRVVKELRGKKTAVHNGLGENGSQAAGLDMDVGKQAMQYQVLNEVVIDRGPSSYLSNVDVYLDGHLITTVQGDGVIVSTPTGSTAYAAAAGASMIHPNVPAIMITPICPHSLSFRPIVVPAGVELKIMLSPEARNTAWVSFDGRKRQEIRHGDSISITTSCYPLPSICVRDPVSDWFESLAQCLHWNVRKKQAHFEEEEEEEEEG
UniProt P28331, whole entry, looked up: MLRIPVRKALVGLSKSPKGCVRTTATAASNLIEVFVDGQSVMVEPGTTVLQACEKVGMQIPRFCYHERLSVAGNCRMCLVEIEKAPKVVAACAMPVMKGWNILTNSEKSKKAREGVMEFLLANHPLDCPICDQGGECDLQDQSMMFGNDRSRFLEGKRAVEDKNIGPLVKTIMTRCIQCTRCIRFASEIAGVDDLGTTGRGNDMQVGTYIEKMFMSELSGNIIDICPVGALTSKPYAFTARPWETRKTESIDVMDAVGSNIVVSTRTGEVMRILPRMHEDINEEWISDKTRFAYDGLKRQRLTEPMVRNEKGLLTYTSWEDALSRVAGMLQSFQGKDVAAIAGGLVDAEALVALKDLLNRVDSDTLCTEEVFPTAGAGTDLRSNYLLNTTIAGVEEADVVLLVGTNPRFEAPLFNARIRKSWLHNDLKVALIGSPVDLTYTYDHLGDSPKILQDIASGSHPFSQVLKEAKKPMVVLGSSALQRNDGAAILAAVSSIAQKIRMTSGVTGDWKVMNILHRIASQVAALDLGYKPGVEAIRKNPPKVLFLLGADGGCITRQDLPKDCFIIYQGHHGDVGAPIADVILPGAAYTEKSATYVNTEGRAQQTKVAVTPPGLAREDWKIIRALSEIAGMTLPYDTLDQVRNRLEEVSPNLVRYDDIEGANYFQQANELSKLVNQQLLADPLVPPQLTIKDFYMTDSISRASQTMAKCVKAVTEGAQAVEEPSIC

Tests used:
Experiment in all cases: log2 fold change, soluble protein after heating vs DMSO (PISA); higher = thermal stabilisation; K562 cells, 10 uM, 30 min; active = over 0.2 and 3.5 SD of the protein, either way, in both replicates (recomputed)
[1] = compound: CC1=C(C=C(C=C1)NC(=O)C2=CC(=CC=C2)C(C)(C)C#N)NC3=CC4=C(C=C3)N=CN(C4=O)C
Method in brief: (§1)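 Values are thermal stability changes relative to control samples and are taken from duplicates. They are stated as log2 fold changes. Before quantification by TMTpro 16plex LC-MS/MS with equalised channel sums, K562 cells at 2×10^6 cells/mL were treated with 10 μM compound for 30 min, heated in aliquots for 3 min across 48°C-58°C, pooled, extracted in PBS with 0.5% NP-40 at 4°C, and centrifuged at 21,000xg for 90 min to give the soluble supernatant.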

[2] = compound: CC1=C(C=C(C=C1)NC(=O)C2=CC(=CC=C2)N(C)C)NC(=O)C3=CC=C(C=C3)O
Method in brief: as §1

[3] = compound: CC1=CC=C(C=C1)SC2=C3C=C(SC3=CN=C2)C(=O)N
Method in brief: as §1

[4] = compound: CC1=NC(=CC=C1)C2=C(N=C(N2)C(C)(C)C)C3=CC4=NC=CN=C4C=C3
Method in brief: as §1

Nexturastat A = compound: CCCCN(Cc1ccc(C(=O)NO)cc1)C(=O)Nc1ccccc1 [Nexturastat A]
Method in brief: as §1

vemurafenib = compound: CCCS(=O)(=O)Nc1ccc(F)c(C(=O)c2c[nH]c3ncc(-c4ccc(Cl)cc4)cc23)c1F [vemurafenib]
Method in brief: as §1

[5] = compound: CCCS(=O)(=O)Nc1ccc(F)c(C(=O)c2c[nH]c3ncc(Cl)cc23)c1F
Method in brief: as §1

[6] = compound: CCCc1cc(C)[nH]c(=O)c1CNC(=O)c1cc(-c2ccnc(N3CCN(C)CC3)c2)cc2c1cnn2C(C)C
Method in brief: as §1

givinostat = compound: CCN(CC)Cc1ccc2cc(COC(=O)Nc3ccc(C(=O)NO)cc3)ccc2c1 [givinostat]
Method in brief: as §1

barasertib = compound: CCN(CCCOc1ccc2c(Nc3cc(CC(=O)Nc4cccc(F)c4)[nH]n3)ncnc2c1)CCOP(=O)(O)O [barasertib]
Method in brief: as §1

[7] = compound: CC[C@@H]1C(=O)N(C)c2cnc(Nc3ccc(C(=O)NC4CCN(C)CC4)cc3OC)nc2N1C1CCCC1
Method in brief: as §1

volasertib = compound: CC[C@@H]1C(=O)N(C)c2cnc(Nc3ccc(C(=O)N[C@H]4CC[C@H](N5CCN(CC6CC6)CC5)CC4)cc3OC)nc2N1C(C)C [volasertib]
Method in brief: as §1

[8] = compound: CC[C@H](C)N1C=C(C2=C(C=C(C=C21)C3=CN=C(C=C3)N4CCNCC4)C(=O)NCC5=C(C=C(NC5=O)C)C)C
Method in brief: as §1

epoxomicin = compound: CC[C@H](C)[C@@H](C(=O)N[C@@H]([C@@H](C)O)C(=O)N[C@@H](CC(C)C)C(=O)[C@]1(CO1)C)NC(=O)[C@H]([C@@H](C)CC)N(C)C(=O)C [epoxomicin]
Method in brief: as §1

[9] = compound: CCn1c(C(=O)N(C2CC2)C2CC2)cc2c3c(ncn3C)c(Nc3cc(C)n(C)n3)nc21
Method in brief: as §1

[10] = compound: CCn1cc(-c2ccnc3[nH]c(-c4cccc(CN(C)C)c4)cc23)c(-c2ccc(NC(=O)N(C)C)cc2)n1
Method in brief: as §1

[11] = compound: CN(C)CC(=O)Nc1ccc2[nH]c(=O)c3ccccc3c2c1
Method in brief: as §1

rosiglitazone = compound: CN(CCOC1=CC=C(C=C1)C[C@H]2C(=O)NC(=O)S2)C3=CC=CC=N3 (racemic) [rosiglitazone]
Method in brief: as §1

[12] = compound: CN1C2=C(C3=C1C(=O)N(N=C3)CC4=CC(=CC=C4)N)SC(=C2)S(=O)C
Method in brief: as §1

[13] = compound: CN1CCC(CNc2ccc3ncc(-c4cccc(OC(F)(F)F)c4)n3n2)CC1
Method in brief: as §1

Measured: log2 fold change

NCAPD3 (UniProt P42695)
inactive: [1] 0.038 | [2] -0.054 | [3] 0.021 | [4] 0.009 | Nexturastat A 0.071 | vemurafenib -0.09 | [5] -0.025 | [6] -0.012 | givinostat 0.047 | barasertib -0.026 | [7] 0.004 | volasertib -0.146 | [8] 0.021 | epoxomicin 0.009 | [9] 0.018 | [10] 0.047 | [11] -0.056 | rosiglitazone 0.04 | [12] 0 | [13] -0.085

NDUFB11 isoform 2 (UniProt Q9NX14)
inactive: [1] 0.011 | [2] -0.043 | [3] 0.008 | [4] 0.014 | Nexturastat A 0.019 | vemurafenib 0.037 | [5] 0.019 | [6] 0.002 | givinostat -0.05 | barasertib 0.013 | [7] -0.053 | volasertib -0.034 | [8] -0.011 | epoxomicin 0.034 | [9] 0.038 | [10] 0.007 | [11] -0.013 | rosiglitazone 0 | [12] 0.024 | [13] -0.008

NDUFA2 (UniProt O43678)
inactive: [1] 0.021 | [2] -0.108 | [3] 0.017 | [4] -0.012 | Nexturastat A -0.046 | vemurafenib -0.015 | [5] 0.024 | [6] 0.178 | givinostat -0.114 | barasertib -0.003 | [7] -0.012 | volasertib -0.046 | [8] 0.037 | epoxomicin 0.076 | [9] -0.044 | [10] -0.05 | [11] 0.022 | rosiglitazone 0.033 | [12] -0.02 | [13] 0.001

Reprinted at random: 2 records from the list, in no set order.
NCAPD3 (UniProt P42695)
inactive: [1] 0.038 | [2] -0.054 | [3] 0.021 | [4] 0.009 | Nexturastat A 0.071 | vemurafenib -0.09 | [5] -0.025 | [6] -0.012 | givinostat 0.047 | barasertib -0.026 | [7] 0.004 | volasertib -0.146 | [8] 0.021 | epoxomicin 0.009 | [9] 0.018 | [10] 0.047 | [11] -0.056 | rosiglitazone 0.04 | [12] 0 | [13] -0.085

NDUFA2 (UniProt O43678)
inactive: [1] 0.021 | [2] -0.108 | [3] 0.017 | [4] -0.012 | Nexturastat A -0.046 | vemurafenib -0.015 | [5] 0.024 | [6] 0.178 | givinostat -0.114 | barasertib -0.003 | [7] -0.012 | volasertib -0.046 | [8] 0.037 | epoxomicin 0.076 | [9] -0.044 | [10] -0.05 | [11] 0.022 | rosiglitazone 0.033 | [12] -0.02 | [13] 0.001

The listing continues:

NADK2 (UniProt Q4G0N4)
inactive: [1] -0.026 | [2] 0.027 | [3] -0.01 | [4] -0.015 | Nexturastat A -0.016 | vemurafenib -0.007 | [5] 0 | [6] 0.019 | givinostat -0.022 | barasertib -0.004 | [7] 0.021 | volasertib 0.034 | [8] 0.01 | epoxomicin 0.032 | [9] -0.014 | [10] -0.022 | [11] 0.019 | rosiglitazone -0.011 | [12] -0.071 | [13] -0.003

NDUFV1 (UniProt P49821)
inactive: [1] -0.013 | [2] 0 | [3] -0.016 | [4] 0 | Nexturastat A 0.003 | vemurafenib -0.006 | [5] -0.001 | [6] -0.025 | givinostat -0.096 | barasertib 0.019 | [7] -0.021 | volasertib -0.013 | [8] 0.017 | epoxomicin 0.042 | [9] -0.027 | [10] -0.023 | [11] 0.017 | rosiglitazone 0.052 | [12] -0.071 | [13] -0.043

NCR3LG1 (UniProt Q68D85)
inactive: [1] -0.044 | [2] -0.017 | [3] -0.073 | [4] 0.025 | Nexturastat A 0.011 | vemurafenib -0.016 | [5] -0.12 | [6] 0.012 | givinostat 0.027 | barasertib -0.024 | [7] -0.049 | volasertib 0.041 | [8] 0.056 | epoxomicin 0.019 | [9] -0.042 | [10] -0.151 | [11] -0.005 | rosiglitazone 0.01 | [12] 0.017 | [13] 0.133

NDUFAF4 (UniProt Q9P032)
inactive: [1] 0.024 | [2] 0.011 | [3] 0.059 | [4] 0.052 | Nexturastat A -0.059 | vemurafenib 0.01 | [5] 0.065 | [6] -0.037 | givinostat 0.011 | barasertib 0.018 | [7] -0.057 | volasertib -0.037 | [8] -0.006 | epoxomicin 0.042 | [9] -0.009 | [10] -0.016 | [11] 0.005 | rosiglitazone 0.008 | [12] -0.07 | [13] -0.092

NAA35 (UniProt Q5VZE5)
inactive: [1] -0.004 | [2] 0.005 | [3] -0.028 | [4] 0.022 | Nexturastat A 0.019 | vemurafenib 0.042 | [5] 0.04 | [6] 0.046 | givinostat 0.061 | barasertib 0.019 | [7] -0.016 | volasertib -0.008 | [8] 0.012 | epoxomicin 0.006 | [9] -0.007 | [10] -0.104 | [11] 0.019 | rosiglitazone 0.034 | [12] -0.046 | [13] 0.002

NDUFB9 (UniProt Q9Y6M9)
inactive: [1] -0.021 | [2] 0.003 | [3] 0.015 | [4] 0 | Nexturastat A -0.05 | vemurafenib -0.011 | [5] 0.029 | [6] -0.102 | givinostat -0.149 | barasertib -0.013 | [7] -0.021 | volasertib -0.012 | [8] -0.007 | epoxomicin -0.008 | [9] -0.024 | [10] -0.008 | [11] 0.033 | rosiglitazone -0.003 | [12] -0.081 | [13] -0.02

N6AMT1 (UniProt Q9Y5N5)
inactive: [1] 0.125 | [2] -0.015 | [3] -0.004 | [4] 0.037 | Nexturastat A -0.012 | vemurafenib -0.031 | [5] -0.04 | [6] -0.031 | givinostat -0.139 | barasertib 0.044 | [7] 0.064 | volasertib 0.002 | [8] -0.008 | epoxomicin 0.109 | [9] -0.017 | [10] -0.169 | [11] 0.049 | rosiglitazone 0.019 | [12] -0.078 | [13] -0.001

NAGLU (UniProt P54802)
inactive: [1] 0.024 | [2] 0.015 | [3] 0.031 | [4] 0.019 | Nexturastat A 0.024 | vemurafenib -0.038 | [5] 0.047 | [6] -0.022 | givinostat 0.018 | barasertib -0.038 | [7] 0.046 | volasertib -0.059 | [8] -0.03 | epoxomicin -0.165 | [9] 0.003 | [10] 0.027 | [11] -0.035 | rosiglitazone 0.055 | [12] 0.051 | [13] -0.124

NDUFS2 (UniProt O75306)
inactive: [1] 0.055 | [2] -0.007 | [3] 0.018 | [4] 0.025 | Nexturastat A -0.116 | vemurafenib 0.05 | [5] 0.052 | [6] -0.048 | givinostat -0.017 | barasertib -0.004 | [7] -0.026 | volasertib -0.064 | [8] 0.011 | epoxomicin 0.037 | [9] 0.02 | [10] -0.05 | [11] 0.024 | rosiglitazone 0.039 | [12] -0.107 | [13] -0.179

NDUFS5 (UniProt O43920)
inactive: [1] -0.047 | [2] -0.011 | [3] 0.11 | [4] -0.01 | Nexturastat A -0.044 | vemurafenib -0.05 | [5] -0.062 | [6] -0.031 | givinostat 0.055 | barasertib -0.031 | [7] 0.02 | volasertib -0.034 | [8] -0.032 | epoxomicin 0.072 | [9] -0.034 | [10] 0.059 | [11] 0 | rosiglitazone 0.015 | [12] 0.004 | [13] -0.052

NADK (UniProt O95544)
inactive: [1] -0.013 | [2] -0.014 | [3] 0.01 | [4] 0.009 | Nexturastat A 0.038 | vemurafenib -0.065 | [5] -0.036 | [6] -0.052 | givinostat -0.003 | barasertib 0.007 | [7] 0.043 | volasertib 0.011 | [8] -0.001 | epoxomicin -0.031 | [9] 0.002 | [10] 0.007 | [11] -0.088 | rosiglitazone -0.004 | [12] -0.007 | [13] -0.011

NCALD (UniProt P61601)
inactive: [1] 0 | [2] -0.006 | [3] 0.021 | [4] -0.016 | Nexturastat A -0.097 | vemurafenib 0.016 | [5] 0.109 | [6] -0.021 | givinostat -0.022 | barasertib 0.024 | [7] -0.092 | volasertib -0.11 | [8] -0.043 | epoxomicin -0.011 | [9] -0.035 | [10] -0.086 | [11] 0.002 | rosiglitazone -0.012 | [12] -0.013 | [13] -0.042

NDUFS1 isoform 2 (UniProt P28331)
inactive: [1] -0.013 | [2] -0.043 | [3] 0.001 | [4] 0.027 | Nexturastat A -0.046 | vemurafenib 0.013 | [5] 0.036 | [6] 0 | givinostat -0.034 | barasertib 0.014 | [7] -0.029 | volasertib -0.154 | [8] 0.068 | epoxomicin 0.065 | [9] -0.019 | [10] -0.123 | [11] 0.053 | rosiglitazone 0.054 | [12] -0.056 | [13] -0.19
